From patent publication US11040029B2, “Methods for the administration of certain VMAT2 inhibitors” (Neurocrine Biosciences, Inc., priority 2017, dated 2021)
Some results were stated once for a whole list of compounds, not compound by compound.

Tested on: more than 80 targets (GPCRs, cell-surface monoamine transporters, ion channels including HERG)
Experiment: Cerep multi-target activity screen
Type: binding
Conditions: 1-10 μM; any target of the panel

| Structure (SMILES) | inhibition of binding of cognate ligands |
| --- | --- |
| COc1cc2c(cc1OC)[C@H]1C[C@H](O)[C@H](CC(C)C)CN1CC2 [S,R,R-DHTBZ, reference compound] | more than 50% |
| COc1cc2c(cc1OC)[C@@H]1C[C@H](O)[C@@H](CC(C)C)CN1CC2 [S,S,S-DHTBZ, reference compound] | more than 50% |
| COc1cc2c(cc1OC)[C@@H]1C[C@@H](O)[C@@H](CC(C)C)CN1CC2 [R,S,S-DHTBZ, reference compound] | more than 50% |
| COc1cc2c(cc1OC)[C@H]1C[C@@H](OC(=O)[C@@H](N)C(C)(C)O)[C@H](CC(C)C)CN1CC2 [NBI-136110] | ≤ 50% |
| COc1cc2c(cc1OC)[C@H]1C[C@@H](OC(=O)[C@@H](N)C(C)C)[C@H](CC(C)C)CN1CC2 [Valbenazine, (S)-2-amino-3-methyl-butyric acid (2R,3R,11bR)-3-isobutyl-9,10-dimethoxy-1,3,4,6,7,11b-hexahydro-2H-pyrido[2,1-a]isoquinolin-2-yl ester] | ≤ 50% |
| COc1cc2c(cc1OC)[C@H]1C[C@@H](O)[C@H](CC(C)C)CN1CC2 [R,R,R-DHTBZ, (2R,3R,11bR)-3-isobutyl-9,10-dimethoxy-1,3,4,6,7,11b-hexahydro-2H-pyrido[2,1-a]isoquinolin-2-ol] | ≤ 50% |
